According to paper PMC11933829:
No constants are given. Whether binding was seen depends on the method and setting. Binding calls can cover weak binding; strength is not graded here. For some assays here: Sequences can lack the tags named with a protein. For some assays here: In cells and extracts the contact can be indirect.

B1: OsNF-YB1 (yeast two-hybrid fusion) (protein, UniProt Q6Z348 1-186)
chain: MAGNKKRGGRNMDQVKKAAVRSDGVGGSATNAELPMANLVRLIKKVLPGKAKIGGAAKGLTHDCAVEFVGFVGDEASEKAKAEHRRTVAPEDYLGSFGDLGFDRYVDPMDAYIHGYREFERAGGNRRVAPPPPAAATPLTPGGPTFTDAELQFLRSVIPSRSDDEYSGSSPAIGGYGYGYGYGKNM
B2: OsNF-YB1-VC155 (protein, UniProt Q6Z348 1-186)
chain: MAGNKKRGGRNMDQVKKAAVRSDGVGGSATNAELPMANLVRLIKKVLPGKAKIGGAAKGLTHDCAVEFVGFVGDEASEKAKAEHRRTVAPEDYLGSFGDLGFDRYVDPMDAYIHGYREFERAGGNRRVAPPPPAAATPLTPGGPTFTDAELQFLRSVIPSRSDDEYSGSSPAIGGYGYGYGYGKNM
B3: OsNF-YB1-cLuc (protein, UniProt Q6Z348 1-186)
chain: MAGNKKRGGRNMDQVKKAAVRSDGVGGSATNAELPMANLVRLIKKVLPGKAKIGGAAKGLTHDCAVEFVGFVGDEASEKAKAEHRRTVAPEDYLGSFGDLGFDRYVDPMDAYIHGYREFERAGGNRRVAPPPPAAATPLTPGGPTFTDAELQFLRSVIPSRSDDEYSGSSPAIGGYGYGYGYGKNM

Key:
[1] = target: OsMYB73 (yeast two-hybrid fusion) (rice (Oryza sativa)); assay: two-hybrid; yeast two-hybrid in yeast cells; bait and prey not stated for the interaction assay
[2] = target: OsMYB73-VN173 (rice (Oryza sativa)); assay: split reporter; BiFC: OsMYB73-VN173 and OsNF-YB1-VC155 in tobacco leaf cells; overnight in the dark at 25 °C; fluorescence microscopy
[3] = target: OsMYB73-nLuc (rice (Oryza sativa)); assay: split reporter; luciferase complementation imaging (LCI): OsMYB73-nLuc and OsNF-YB1-cLuc in Nicotiana benthamiana leaf cells

Row | Molecule | binding [1] | further results
1 | OsYUC11 (yeast two-hybrid fusion) (from UniProt A0A0P0Y7T8) | binds | 
2 | OsLTPL36 (yeast two-hybrid fusion) (from UniProt Q10KV4) | binds | 
3 | B1 | binds | 
4 | B2 |  | binding [2]: binds
5 | B3 |  | binding [3]: binds
